The source of these data is paper PMC3185033.

Amino acid sequences for entries named in this document (tags omitted).
UniProt Q04887: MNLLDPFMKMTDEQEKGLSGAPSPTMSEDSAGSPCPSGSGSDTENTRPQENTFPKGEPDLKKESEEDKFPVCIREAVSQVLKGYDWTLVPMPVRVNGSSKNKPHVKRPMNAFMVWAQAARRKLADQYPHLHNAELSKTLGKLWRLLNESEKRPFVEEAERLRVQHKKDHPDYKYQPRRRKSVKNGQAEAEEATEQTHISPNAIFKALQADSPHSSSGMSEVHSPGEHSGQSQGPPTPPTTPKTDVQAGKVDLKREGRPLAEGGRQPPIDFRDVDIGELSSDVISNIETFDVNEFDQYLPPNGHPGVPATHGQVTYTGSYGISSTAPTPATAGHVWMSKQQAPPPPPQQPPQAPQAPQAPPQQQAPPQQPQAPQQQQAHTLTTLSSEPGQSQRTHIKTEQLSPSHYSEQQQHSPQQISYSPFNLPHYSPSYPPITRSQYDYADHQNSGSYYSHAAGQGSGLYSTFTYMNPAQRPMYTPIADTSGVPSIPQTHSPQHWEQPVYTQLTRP
UniProt Q9C0E2: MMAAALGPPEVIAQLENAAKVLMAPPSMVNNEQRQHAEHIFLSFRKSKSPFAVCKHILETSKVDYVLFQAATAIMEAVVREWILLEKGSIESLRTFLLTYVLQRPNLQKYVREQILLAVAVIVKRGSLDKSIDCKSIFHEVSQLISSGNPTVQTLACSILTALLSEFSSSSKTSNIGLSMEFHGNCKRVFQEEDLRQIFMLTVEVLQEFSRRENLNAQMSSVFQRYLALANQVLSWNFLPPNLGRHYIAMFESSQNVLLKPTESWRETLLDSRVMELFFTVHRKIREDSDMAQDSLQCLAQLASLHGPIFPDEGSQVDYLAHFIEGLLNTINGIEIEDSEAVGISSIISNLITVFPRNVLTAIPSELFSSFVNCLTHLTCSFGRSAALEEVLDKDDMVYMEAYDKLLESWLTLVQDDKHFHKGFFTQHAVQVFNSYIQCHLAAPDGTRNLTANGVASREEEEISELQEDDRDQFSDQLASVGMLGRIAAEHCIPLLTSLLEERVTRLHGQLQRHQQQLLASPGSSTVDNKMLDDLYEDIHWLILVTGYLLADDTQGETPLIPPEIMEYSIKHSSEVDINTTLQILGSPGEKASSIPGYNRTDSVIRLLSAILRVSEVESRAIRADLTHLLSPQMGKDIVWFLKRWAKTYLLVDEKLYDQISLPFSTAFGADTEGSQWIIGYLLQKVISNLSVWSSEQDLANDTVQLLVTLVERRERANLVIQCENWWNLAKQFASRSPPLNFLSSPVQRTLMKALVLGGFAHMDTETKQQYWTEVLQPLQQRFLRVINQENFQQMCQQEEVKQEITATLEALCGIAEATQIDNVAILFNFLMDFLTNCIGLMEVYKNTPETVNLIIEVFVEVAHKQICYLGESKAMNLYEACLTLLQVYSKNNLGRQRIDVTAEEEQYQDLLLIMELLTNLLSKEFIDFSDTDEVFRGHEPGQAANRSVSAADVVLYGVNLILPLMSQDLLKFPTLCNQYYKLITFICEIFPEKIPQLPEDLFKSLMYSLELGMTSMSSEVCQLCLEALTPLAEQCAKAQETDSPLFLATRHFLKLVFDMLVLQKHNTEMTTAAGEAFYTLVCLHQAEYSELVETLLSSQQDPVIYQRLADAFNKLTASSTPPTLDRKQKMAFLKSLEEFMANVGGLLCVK

No constants are given. Whether binding was seen depends on the method and setting. In cells and extracts the contact can be indirect. These calls come from enrichment with a bait or labelling near it, and not all partners need be listed.

This test has as its target FLAG-tagged Sox9 (full length) (mouse) (UniProt Q04887). The test can be described thus: affinity purification with mass spectrometry; FLAG-Sox9 on anti-FLAG M2 agarose incubated with HeLa S3 nuclear extract 3 hr at 4°C; washed with B150 buffer (150 mM KCl, pH 8.0); eluted with glycine-HCl pH 2.5; NuPAGE, silver stain, MALDI-TOF MS of the band; only the target purified.

Take “exportin 4 (Exp4), endogenous in HeLa nuclear extract (from UniProt Q9C0E2 1-1151)”: the binding result is “binds”.
